Data published in patent US20260055173A1.
No constants are given. Whether binding was seen depends on the method and setting. A result given as binding can be weak or reduced; the word gives no strength. Values belong to the binder of their own block, whether it stands above or below them.

Target: VEGF
Experiment: VEGF binding assay (FIG. 1)

binding: binds
B1: Strain #48 VHH (VHH, not shown: a dimerising Fc or GST)
VHH: EVQLLESGGGLVQPGGSLRLSCAASGFTFSTSTMSWYRQAPGKERELVSFITSAGATTYYADSVKGRFTMSRDNSKNTVYLQMNSLRAEDTAVYYCRALVTLWNVYWGQGTLVTVSS

binding: binds
B2: Strain #6 VHH (Fc fusion, not shown: a dimerising Fc or GST)
chain: QVQLQESGGGLVQPGGSLRLSCAASGFTFSTSTMSWYRQAPGKERELVAFITSAGATTNYADSVKDRFTMSRDNDKNTVYLQMNVLKPEDTAMYYCRALVTLWNVYWGQGTQVTVSS
